No constants are given. Whether binding was seen depends on the method and setting. For some of these results: Binding calls can cover weak binding; strength is not graded here. For some of these results: Binding seen in cells or lysates may run through a third protein.
How the values were obtained:
[1] = target: OpuABC-H, OpuABC subunit of the ABC transporter OpuA with a C-terminal His6-tag (Lactococcus lactis); assay: pull-down; single tag affinity purification (Ni2+-Sepharose or Strep-tactin) of homodimeric OpuA from membrane vesicles solubilised with 0.5% DDM, 20% glycerol, 4 °C; fractions on Coomassie-stained SDS-PAGE
[2] = target: OpuABC-S, OpuABC subunit of the ABC transporter OpuA with a C-terminal StrepII-tag (Lactococcus lactis); assay: as above
[3] = target: OpuABC-SS, OpuABC subunit of the ABC transporter OpuA with a C-terminal TwinStrepII-tag (Lactococcus lactis); assay: as above
[4] = target: OpuABC-H, OpuABC subunit of the ABC transporter OpuA with a C-terminal His6-tag (Lactococcus lactis); assay: condition: only nanodisc reconstitution after two sequential affinity purifications in detergent; SEC; OpuA-HSS reconstituted in nanodiscs only after both affinity steps in detergent; SEC fractions on SDS-PAGE; both purified
[5] = target: OpuABC-SS, OpuABC subunit of the ABC transporter OpuA with a C-terminal TwinStrepII-tag (Lactococcus lactis); assay: as above
[6] = target: OpuABC-H, OpuABC subunit of the ABC transporter OpuA with a C-terminal His6-tag (Lactococcus lactis); assay: SEC; affinity-purified OpuA reconstituted in MSP1D1 nanodiscs (DOPE/DOPC/DOPG; OpuA/MSP1D1/lipid 1:20:2000 or 1:20:1000), Superdex 200 Increase 10/300 GL, 50 mM KPi pH 7.0, 200 mM KCl; peak fraction on SDS-PAGE; both purified
[7] = target: OpuABC-S, OpuABC subunit of the ABC transporter OpuA with a C-terminal StrepII-tag (Lactococcus lactis); assay: as above
[8] = target: OpuABC-SS, OpuABC subunit of the ABC transporter OpuA with a C-terminal TwinStrepII-tag (Lactococcus lactis); assay: as above
[9] = target: OpuABC-H, OpuABC subunit of the ABC transporter OpuA with a C-terminal His6-tag (Lactococcus lactis); assay: pull-down; Ni2+-Sepharose purification, reconstitution in MSP1D1 nanodiscs, SEC, then Strep-tactin purification of the nanodisc peak fraction (50 mM Tris-HCl pH 8.0, 150 mM NaCl, 4% glycerol); Coomassie-stained SDS-PAGE; both purified
[10] = target: OpuABC-SS, OpuABC subunit of the ABC transporter OpuA with a C-terminal TwinStrepII-tag (Lactococcus lactis); assay: as above

binding [1]: binds
binding [2]: binds
binding [3]: binds
binding [4]: no binding
binding [5]: no binding
binding [6]: binds
binding [7]: binds
binding [8]: binds
binding [9]: binds
binding [10]: binds
B1: OpuAA, nucleotide-binding subunit of the ABC transporter OpuA (protein, UniProt Q9KIF7 1-408)
chain: MPVKIKIEHLTKIFGKRIKTALTMVEKGEPKNEILKKTGATVGVYDTNFEINEGEIFVIMGLSGSGKSTLLRLLNRLIEPTSGKIFIDNQDVATLNKEDLLQVRRKTMSMVFQNFGLFPHRTILENTEYGLEVQNVPKEERRKRAEKALDNANLLDFKDQYPKQLSGGMQQRVGLARALANDPEILLMDEAFSALDPLIRREMQDELLELQAKFQKTIIFVSHDLNEALRIGDRIAIMKDGKIMQIGTGEEILTNPANDYVKTFVEDVDRAKVITAENIMIPALTTNIDVDGPSVALKKMKTEEVSSLMAVDKKRQFRGVVTSEQAIAARKNNQPLKDVMTTDVGTVSKEMLVRDILPIIYDAPTPLAVVDDNGFLKGVLIRGSVLEALADIPDEDEVEEIEKEEENK
